Measured values: patent EP2308983B1, “Cytochrome P450 from Rhizopus oryzae and uses thereof” (Univerza v Ljubljani, priority 2009, dated 2011)

System: R. oryzae
Assay: R. oryzae hydroxylation activity assay (mycelium, HPLC and LC/MS)
Type: cell-based
Conditions: 300 µM steroid, up to 2 h

Row | SMILES | extent of hydroxylation by the fungus compared to SpoC12 | ratio between 11α- and 6β-hydroxylated derivative in the fungus compared to SpoC12
1 | C[C@]12CC[C@H]3[C@@H](CCC4=CC(=O)CC[C@@]43C)[C@@H]1CC[C@@H]2C(=O)CO [DOC, 11-deoxycorticosterone] | much lesser extent than SpoC12 | –
2 | C[C@]12CC[C@H]3[C@@H](CCC4=CC(=O)CC[C@@]43C)[C@@H]1CC[C@@H]2O [testosterone] | – | much higher as in SpoC12
